Laboratory results: PubChem BioAssay AID504774 (Drosophila RNAi Screening Center, 2011)
Purpose: 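Knock-downs that shift viability of MMS-exposed cells relative to untreated ones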 (primary screen). Cells: Drosophila Kc167 cells. Reagents: long dsRNA against Drosophila genes, about 0.25 µg dsRNA per well. Time to read-out: about 6 days: 3 days knock-down, then 3 days with or without MMS. Conditions: methyl methanesulphonate 0.004% (w/v) for 3 days after knock-down. Measurement: 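ATP-dependent luminescence as a measure of live cells in MMS-exposed wells, quantile normalised within each plate, with replicate values also given as a mean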. Scale: mean viability with MMS and viability with MMS: higher = more surviving cells after MMS.
In all, the deposit lists about 23,000 reagents; this is an unselected part of those that have a named target and a result. 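Values are quantile-normalised luminescence on an arbitrary scale; higher means more cells surviving MMS.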 Names joined by + are all predicted targets of the reagent. Further read-outs or replicates are left out here. Reagent sequences are not shown.

The opening 2 entries, to show the layout:
{"gene knocked down":"CG6908","amplicon":"DRSC16131","mean viability with MMS":3.49e6,"viability with MMS, replicate 1":4.01e6}
{"gene knocked down":"Alh","amplicon":"DRSC12447","mean viability with MMS":2.98e6,"viability with MMS, replicate 1":3.62e6}

Main list, from the start:
{"gene knocked down":"CG6908","amplicon":"DRSC16131","mean viability with MMS":3.49e6,"viability with MMS, replicate 1":4.01e6}
{"gene knocked down":"Alh","amplicon":"DRSC12447","mean viability with MMS":2.98e6,"viability with MMS, replicate 1":3.62e6}
{"gene knocked down":"Alh","amplicon":"DRSC12487","mean viability with MMS":3.36e6,"viability with MMS, replicate 1":3.84e6}
{"gene knocked down":"Alh","amplicon":"DRSC12488","mean viability with MMS":3.40e6,"viability with MMS, replicate 1":3.92e6}
{"gene knocked down":"nrv1","amplicon":"DRSC03382","mean viability with MMS":3.55e6,"viability with MMS, replicate 1":3.92e6}
{"gene knocked down":"CG11672","amplicon":"DRSC14344","mean viability with MMS":3.48e6,"viability with MMS, replicate 1":4.01e6}
{"gene knocked down":"meigo","amplicon":"DRSC15877","mean viability with MMS":3.29e6,"viability with MMS, replicate 1":3.79e6}
{"gene knocked down":"CG17075","amplicon":"DRSC00483","mean viability with MMS":3.48e6,"viability with MMS, replicate 1":3.88e6}
{"gene knocked down":"Rad17","amplicon":"DRSC16811","mean viability with MMS":3.53e6,"viability with MMS, replicate 1":4.11e6}
{"gene knocked down":"CG32075","amplicon":"DRSC10622","mean viability with MMS":3.56e6,"viability with MMS, replicate 1":4.04e6}
{"gene knocked down":"CG8419","amplicon":"DRSC03087","mean viability with MMS":3.72e6,"viability with MMS, replicate 1":4.52e6}
{"gene knocked down":"MtnA","amplicon":"DRSC21588","mean viability with MMS":3.72e6,"viability with MMS, replicate 1":4.12e6}
{"gene knocked down":"Srlp","amplicon":"DRSC15890","mean viability with MMS":2.70e6,"viability with MMS, replicate 1":3.63e6}
{"gene knocked down":"CG32751","amplicon":"DRSC21770","mean viability with MMS":3.35e6,"viability with MMS, replicate 1":3.79e6}
{"gene knocked down":"RpS24","amplicon":"DRSC04414","mean viability with MMS":2.97e6,"viability with MMS, replicate 1":3.82e6}
{"gene knocked down":"retinin","amplicon":"DRSC09940","mean viability with MMS":3.67e6,"viability with MMS, replicate 1":4.10e6}
{"gene knocked down":"PpN58A","amplicon":"DRSC04642","mean viability with MMS":3.40e6,"viability with MMS, replicate 1":3.91e6}
{"gene knocked down":"CG32733 (retired record) + CG32797","amplicon":"DRSC17705","mean viability with MMS":3.47e6,"viability with MMS, replicate 1":3.98e6}
{"gene knocked down":"CG32132 (retired record)","amplicon":"DRSC22437","mean viability with MMS":3.35e6,"viability with MMS, replicate 1":3.84e6}
{"gene knocked down":"CG32132 (retired record)","amplicon":"DRSC23128","mean viability with MMS":3.52e6,"viability with MMS, replicate 1":4.10e6}
{"gene knocked down":"GNBP2","amplicon":"DRSC10404","mean viability with MMS":3.59e6,"viability with MMS, replicate 1":4.10e6}
{"gene knocked down":"Meics","amplicon":"DRSC11413","mean viability with MMS":3.36e6,"viability with MMS, replicate 1":3.72e6}
{"gene knocked down":"CG4073","amplicon":"DRSC15542","mean viability with MMS":3.58e6,"viability with MMS, replicate 1":4.04e6}
{"gene knocked down":"CG4168","amplicon":"DRSC01446","mean viability with MMS":3.47e6,"viability with MMS, replicate 1":3.97e6}
{"gene knocked down":"CG4168","amplicon":"DRSC01447","mean viability with MMS":3.42e6,"viability with MMS, replicate 1":3.89e6}
{"gene knocked down":"CG4168","amplicon":"DRSC01933","mean viability with MMS":3.58e6,"viability with MMS, replicate 1":4.05e6}
{"gene knocked down":"CG4168","amplicon":"DRSC21319","mean viability with MMS":3.52e6,"viability with MMS, replicate 1":3.88e6}
{"gene knocked down":"CG4168","amplicon":"DRSC22789","mean viability with MMS":3.41e6,"viability with MMS, replicate 1":3.94e6}
{"gene knocked down":"CG31251","amplicon":"DRSC16247","mean viability with MMS":3.45e6,"viability with MMS, replicate 1":3.99e6}
{"gene knocked down":"CG14043","amplicon":"DRSC02368","mean viability with MMS":3.52e6,"viability with MMS, replicate 1":4.15e6}
{"gene knocked down":"alpha-Est5","amplicon":"DRSC12617","mean viability with MMS":3.46e6,"viability with MMS, replicate 1":3.95e6}
{"gene knocked down":"CG34320 (retired record)","amplicon":"DRSC17682","mean viability with MMS":3.63e6,"viability with MMS, replicate 1":4.00e6}
{"gene knocked down":"Nup98-96","amplicon":"DRSC14209","mean viability with MMS":3.12e6,"viability with MMS, replicate 1":3.65e6}
{"gene knocked down":"Nup98-96","amplicon":"DRSC14210","mean viability with MMS":3.31e6,"viability with MMS, replicate 1":3.68e6}
{"gene knocked down":"dan","amplicon":"DRSC14406","mean viability with MMS":3.30e6,"viability with MMS, replicate 1":3.78e6}
